# Measured values: paper PMC5648829 (Scientific Reports, 2017)
# By UniProt entry, the sequences of proteins in these tests, tags left out.
# UniProt P09960, whole entry: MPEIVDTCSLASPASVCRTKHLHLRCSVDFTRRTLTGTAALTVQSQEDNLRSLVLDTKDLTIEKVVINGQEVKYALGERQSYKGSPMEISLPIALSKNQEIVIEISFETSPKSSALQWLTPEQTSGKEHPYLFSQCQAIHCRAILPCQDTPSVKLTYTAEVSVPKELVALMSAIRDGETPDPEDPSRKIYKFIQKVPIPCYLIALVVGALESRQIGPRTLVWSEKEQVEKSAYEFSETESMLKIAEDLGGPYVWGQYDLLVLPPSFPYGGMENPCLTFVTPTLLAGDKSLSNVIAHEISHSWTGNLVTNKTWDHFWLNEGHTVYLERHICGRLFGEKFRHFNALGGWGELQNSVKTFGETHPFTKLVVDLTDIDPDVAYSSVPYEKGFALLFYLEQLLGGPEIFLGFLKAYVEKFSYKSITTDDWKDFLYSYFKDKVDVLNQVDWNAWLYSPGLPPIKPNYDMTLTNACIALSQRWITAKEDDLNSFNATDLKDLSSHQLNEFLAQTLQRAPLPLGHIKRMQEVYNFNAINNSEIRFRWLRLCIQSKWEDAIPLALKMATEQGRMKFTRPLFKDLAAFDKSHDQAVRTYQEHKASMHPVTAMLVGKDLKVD
# For part of its entries the source gives two or more results. The list is limited to them. An entry can have further records. Values that stand side by side differ for a reason that is not stated; dose, time, organism, isomer or construct need not be as stated for each record.
# Molecular target: LTA4H (Homo sapiens, UniProt P09960)
# Experiment: PGP peptidolysis assay by LC-MS/MS
# Type: biochemical
# Settings: Table 2; fold selectivity
row,Ratio IC50 PGP/Arg-AMC,SMILES
1,approximately 4 and 4.0,O=Cc1ccc(Oc2nc3ncccc3s2)cc1
2,approximately 4 and 4.4,O=Cc1ncc(Oc2nc3ccccc3s2)cn1 [Compound 16]
